Data from paper PMC10371147.
Results are given in words; binding and its absence hold for the method and conditions named. Binding seen in cells or lysates may run through a third protein. Some results given as binding are weak or reduced against the parent protein; the word gives no strength. For part of these data: Sequences can lack the tags named with a protein.

Protein sequences, listed by entry. Tags and fused reporters are not part of them.
UniProt Q92508: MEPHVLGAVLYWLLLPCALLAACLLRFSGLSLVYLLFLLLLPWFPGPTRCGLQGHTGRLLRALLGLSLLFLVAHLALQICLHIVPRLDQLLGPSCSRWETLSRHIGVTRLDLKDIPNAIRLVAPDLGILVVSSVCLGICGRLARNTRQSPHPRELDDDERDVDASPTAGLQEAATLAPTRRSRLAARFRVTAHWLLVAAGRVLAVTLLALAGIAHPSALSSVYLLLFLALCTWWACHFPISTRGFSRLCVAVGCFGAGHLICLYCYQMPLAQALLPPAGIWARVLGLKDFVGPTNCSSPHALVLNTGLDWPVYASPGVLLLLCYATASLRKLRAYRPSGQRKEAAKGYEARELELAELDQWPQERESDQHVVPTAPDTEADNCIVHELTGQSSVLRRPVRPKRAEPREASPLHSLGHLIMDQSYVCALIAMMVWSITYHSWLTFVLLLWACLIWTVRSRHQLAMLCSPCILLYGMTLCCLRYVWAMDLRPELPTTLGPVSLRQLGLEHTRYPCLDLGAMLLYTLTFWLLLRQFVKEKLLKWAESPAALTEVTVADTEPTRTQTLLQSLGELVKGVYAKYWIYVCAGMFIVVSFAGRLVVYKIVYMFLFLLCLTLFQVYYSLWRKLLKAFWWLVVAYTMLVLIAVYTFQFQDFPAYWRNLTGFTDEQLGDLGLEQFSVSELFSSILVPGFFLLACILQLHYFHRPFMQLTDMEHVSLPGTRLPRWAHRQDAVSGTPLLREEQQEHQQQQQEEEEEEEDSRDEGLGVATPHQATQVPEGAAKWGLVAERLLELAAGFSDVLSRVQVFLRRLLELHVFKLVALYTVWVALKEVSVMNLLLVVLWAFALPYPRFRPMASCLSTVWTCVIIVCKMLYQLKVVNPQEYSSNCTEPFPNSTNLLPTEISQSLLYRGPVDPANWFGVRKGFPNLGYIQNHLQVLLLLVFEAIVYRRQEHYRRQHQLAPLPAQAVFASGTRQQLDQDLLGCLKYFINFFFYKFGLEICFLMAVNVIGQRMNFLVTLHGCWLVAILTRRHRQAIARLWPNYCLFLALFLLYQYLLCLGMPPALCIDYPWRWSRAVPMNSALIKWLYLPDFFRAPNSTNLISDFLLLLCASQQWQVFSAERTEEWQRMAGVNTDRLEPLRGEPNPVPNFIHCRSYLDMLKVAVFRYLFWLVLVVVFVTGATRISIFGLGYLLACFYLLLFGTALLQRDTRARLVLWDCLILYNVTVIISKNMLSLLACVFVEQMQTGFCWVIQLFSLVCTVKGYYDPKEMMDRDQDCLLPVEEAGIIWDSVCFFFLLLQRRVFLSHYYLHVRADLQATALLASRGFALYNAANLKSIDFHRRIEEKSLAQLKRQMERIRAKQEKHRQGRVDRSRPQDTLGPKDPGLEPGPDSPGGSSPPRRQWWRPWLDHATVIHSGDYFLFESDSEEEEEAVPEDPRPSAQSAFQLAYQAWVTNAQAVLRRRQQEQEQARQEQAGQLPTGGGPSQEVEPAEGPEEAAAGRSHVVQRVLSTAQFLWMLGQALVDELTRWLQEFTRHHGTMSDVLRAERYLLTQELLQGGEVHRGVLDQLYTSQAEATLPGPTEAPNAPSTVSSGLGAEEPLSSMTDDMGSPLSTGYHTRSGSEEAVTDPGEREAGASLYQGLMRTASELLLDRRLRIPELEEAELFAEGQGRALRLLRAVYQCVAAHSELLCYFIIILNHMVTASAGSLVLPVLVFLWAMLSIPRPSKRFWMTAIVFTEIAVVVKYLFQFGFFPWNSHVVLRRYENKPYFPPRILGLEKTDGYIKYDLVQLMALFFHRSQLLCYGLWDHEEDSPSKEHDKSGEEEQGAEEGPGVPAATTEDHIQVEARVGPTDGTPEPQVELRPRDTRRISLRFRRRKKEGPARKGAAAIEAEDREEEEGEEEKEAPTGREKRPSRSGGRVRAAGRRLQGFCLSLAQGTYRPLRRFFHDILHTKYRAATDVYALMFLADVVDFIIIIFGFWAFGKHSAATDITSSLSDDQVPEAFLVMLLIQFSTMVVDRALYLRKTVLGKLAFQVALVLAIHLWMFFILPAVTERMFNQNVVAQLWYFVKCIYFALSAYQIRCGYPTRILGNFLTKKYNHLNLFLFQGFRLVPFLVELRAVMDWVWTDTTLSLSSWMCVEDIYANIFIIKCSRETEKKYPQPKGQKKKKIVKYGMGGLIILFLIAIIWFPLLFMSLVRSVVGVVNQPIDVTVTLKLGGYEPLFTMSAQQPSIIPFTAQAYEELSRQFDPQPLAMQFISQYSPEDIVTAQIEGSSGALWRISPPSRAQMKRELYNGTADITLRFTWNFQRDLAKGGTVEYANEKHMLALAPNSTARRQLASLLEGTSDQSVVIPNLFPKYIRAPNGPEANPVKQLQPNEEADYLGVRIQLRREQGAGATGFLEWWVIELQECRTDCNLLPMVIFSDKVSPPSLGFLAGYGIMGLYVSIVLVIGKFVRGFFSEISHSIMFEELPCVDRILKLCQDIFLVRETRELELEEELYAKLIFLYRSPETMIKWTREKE
UniProt E2JF22: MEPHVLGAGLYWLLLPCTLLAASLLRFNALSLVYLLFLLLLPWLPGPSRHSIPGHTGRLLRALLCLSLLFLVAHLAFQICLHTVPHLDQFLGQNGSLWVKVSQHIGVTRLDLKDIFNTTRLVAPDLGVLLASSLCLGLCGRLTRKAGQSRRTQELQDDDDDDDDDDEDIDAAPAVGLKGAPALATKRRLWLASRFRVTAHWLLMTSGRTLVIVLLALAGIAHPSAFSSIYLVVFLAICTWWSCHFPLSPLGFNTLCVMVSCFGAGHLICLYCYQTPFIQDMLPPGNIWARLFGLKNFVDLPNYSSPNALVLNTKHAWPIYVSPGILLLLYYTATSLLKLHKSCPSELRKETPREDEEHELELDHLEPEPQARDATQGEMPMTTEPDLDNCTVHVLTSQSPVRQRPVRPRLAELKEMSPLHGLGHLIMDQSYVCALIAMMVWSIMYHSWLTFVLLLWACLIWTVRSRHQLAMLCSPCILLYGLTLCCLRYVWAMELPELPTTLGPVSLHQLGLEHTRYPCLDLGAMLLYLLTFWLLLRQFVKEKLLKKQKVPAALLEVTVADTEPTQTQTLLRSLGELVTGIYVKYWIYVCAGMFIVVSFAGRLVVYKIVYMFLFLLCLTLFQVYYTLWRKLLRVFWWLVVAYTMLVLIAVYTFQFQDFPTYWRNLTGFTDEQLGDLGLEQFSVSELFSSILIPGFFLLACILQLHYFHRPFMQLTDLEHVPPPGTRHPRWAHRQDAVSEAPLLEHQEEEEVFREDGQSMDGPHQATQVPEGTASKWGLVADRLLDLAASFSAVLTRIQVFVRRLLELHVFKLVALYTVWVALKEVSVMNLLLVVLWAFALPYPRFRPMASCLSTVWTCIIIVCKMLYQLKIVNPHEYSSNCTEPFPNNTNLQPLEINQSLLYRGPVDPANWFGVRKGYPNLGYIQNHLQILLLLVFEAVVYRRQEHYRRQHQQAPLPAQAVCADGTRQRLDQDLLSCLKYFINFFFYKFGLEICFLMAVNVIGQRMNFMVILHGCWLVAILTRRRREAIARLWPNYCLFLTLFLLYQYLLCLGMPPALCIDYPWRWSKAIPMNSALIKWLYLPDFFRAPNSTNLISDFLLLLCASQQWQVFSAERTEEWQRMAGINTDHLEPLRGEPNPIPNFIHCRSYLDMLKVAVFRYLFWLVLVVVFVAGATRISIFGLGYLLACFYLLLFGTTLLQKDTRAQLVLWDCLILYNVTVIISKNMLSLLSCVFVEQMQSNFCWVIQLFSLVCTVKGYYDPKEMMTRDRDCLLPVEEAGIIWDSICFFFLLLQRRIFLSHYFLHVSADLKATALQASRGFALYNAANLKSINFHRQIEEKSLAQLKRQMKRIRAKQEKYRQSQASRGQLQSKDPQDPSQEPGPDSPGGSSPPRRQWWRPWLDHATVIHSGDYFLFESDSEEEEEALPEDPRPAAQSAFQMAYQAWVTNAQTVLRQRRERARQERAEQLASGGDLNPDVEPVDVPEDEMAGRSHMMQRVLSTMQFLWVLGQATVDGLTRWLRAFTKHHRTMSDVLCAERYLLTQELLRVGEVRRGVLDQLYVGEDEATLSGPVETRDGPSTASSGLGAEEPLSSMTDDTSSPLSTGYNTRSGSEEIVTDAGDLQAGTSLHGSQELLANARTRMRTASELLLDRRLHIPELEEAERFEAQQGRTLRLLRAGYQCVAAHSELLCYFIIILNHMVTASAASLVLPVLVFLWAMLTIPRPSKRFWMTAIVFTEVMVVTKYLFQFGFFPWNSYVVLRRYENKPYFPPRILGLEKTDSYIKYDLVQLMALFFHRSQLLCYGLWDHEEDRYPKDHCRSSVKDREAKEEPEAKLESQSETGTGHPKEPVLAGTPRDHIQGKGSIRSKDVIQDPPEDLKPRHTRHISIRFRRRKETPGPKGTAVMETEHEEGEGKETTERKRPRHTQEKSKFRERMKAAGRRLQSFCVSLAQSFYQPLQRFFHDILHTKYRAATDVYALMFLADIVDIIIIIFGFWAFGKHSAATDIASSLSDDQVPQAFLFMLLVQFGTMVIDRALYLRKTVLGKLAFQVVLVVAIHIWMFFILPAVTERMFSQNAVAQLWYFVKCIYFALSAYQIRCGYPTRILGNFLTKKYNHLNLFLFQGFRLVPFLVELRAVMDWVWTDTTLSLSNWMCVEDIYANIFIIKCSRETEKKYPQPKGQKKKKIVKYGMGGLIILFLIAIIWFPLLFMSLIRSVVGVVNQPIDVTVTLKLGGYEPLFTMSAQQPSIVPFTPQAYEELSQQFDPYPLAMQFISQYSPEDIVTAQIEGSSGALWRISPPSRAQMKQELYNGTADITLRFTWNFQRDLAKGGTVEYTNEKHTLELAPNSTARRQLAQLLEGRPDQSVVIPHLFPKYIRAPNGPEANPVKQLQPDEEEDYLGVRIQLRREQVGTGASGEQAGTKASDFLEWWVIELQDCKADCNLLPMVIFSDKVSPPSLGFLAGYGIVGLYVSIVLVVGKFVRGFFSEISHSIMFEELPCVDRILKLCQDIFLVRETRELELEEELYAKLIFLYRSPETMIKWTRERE

What was measured:
[1] = molecular target: T1, mCherry-tagged mouse Tmc1 (HEK 293) (mouse) (UniProt Q8R4P5); assay: co-IP; HEK 293 cells transfected with mCherry-Tmc1 or mCherry-Tmc2 alone, endogenous Pz1 detected with anti-mPz1
T1 sequence: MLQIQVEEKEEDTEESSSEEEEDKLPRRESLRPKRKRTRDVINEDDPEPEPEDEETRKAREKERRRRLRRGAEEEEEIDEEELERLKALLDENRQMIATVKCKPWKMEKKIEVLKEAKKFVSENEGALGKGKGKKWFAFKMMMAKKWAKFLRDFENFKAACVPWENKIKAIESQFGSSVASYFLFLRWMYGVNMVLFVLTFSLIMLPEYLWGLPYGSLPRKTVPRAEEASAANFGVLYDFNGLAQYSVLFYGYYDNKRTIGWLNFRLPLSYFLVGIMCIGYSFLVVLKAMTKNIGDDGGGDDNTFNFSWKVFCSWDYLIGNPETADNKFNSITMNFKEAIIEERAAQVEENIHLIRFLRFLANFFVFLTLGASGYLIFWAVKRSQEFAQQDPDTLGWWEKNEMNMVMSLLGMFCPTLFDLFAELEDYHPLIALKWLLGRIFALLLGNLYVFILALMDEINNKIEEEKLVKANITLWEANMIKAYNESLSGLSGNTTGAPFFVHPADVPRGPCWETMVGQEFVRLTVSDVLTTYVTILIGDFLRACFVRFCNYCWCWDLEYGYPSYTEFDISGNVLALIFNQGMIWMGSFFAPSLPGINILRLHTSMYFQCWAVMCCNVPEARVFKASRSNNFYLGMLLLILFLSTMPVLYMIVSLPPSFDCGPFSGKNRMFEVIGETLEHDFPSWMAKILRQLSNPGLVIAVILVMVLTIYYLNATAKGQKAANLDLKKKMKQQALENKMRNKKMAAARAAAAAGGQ

[2] = molecular target: T2, mCherry-tagged mouse Tmc2 (HEK 293) (mouse) (UniProt Q8R4P4); assay: as above
T2 sequence: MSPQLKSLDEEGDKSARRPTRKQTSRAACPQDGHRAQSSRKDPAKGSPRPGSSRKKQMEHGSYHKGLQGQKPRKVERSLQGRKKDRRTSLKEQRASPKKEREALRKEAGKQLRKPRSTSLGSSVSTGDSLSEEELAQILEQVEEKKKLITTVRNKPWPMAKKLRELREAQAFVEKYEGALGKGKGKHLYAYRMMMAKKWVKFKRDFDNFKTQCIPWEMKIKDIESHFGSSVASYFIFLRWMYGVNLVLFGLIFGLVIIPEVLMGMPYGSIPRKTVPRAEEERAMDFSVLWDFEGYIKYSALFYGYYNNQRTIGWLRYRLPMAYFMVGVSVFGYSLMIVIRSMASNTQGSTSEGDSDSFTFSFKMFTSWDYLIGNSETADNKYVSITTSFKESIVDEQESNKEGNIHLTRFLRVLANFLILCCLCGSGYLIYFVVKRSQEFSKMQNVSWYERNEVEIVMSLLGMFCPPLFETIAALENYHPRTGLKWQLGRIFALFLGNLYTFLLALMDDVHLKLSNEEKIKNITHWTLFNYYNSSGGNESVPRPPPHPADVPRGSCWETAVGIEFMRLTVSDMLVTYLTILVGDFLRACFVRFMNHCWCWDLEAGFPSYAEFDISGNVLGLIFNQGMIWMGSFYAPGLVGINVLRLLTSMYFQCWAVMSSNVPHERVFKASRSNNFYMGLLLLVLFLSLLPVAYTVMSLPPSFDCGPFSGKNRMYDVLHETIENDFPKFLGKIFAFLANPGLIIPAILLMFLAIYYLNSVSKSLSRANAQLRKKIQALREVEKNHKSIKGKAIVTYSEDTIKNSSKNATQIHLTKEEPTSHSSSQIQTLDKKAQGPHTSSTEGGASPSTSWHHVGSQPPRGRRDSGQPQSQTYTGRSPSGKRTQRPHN

[3] = molecular target: HA-tagged mouse Pcdh15 (mouse) (UniProt Q99PJ1); assay: co-IP; lysates of HEK 293 cells co-transfected with Pz1-FLAG and one tagged partner, harvested 48 h after transfection, antibody on Dynabeads Protein G, 20 min at RT, Western blot with antibodies to the tags
[4] = molecular target: T3, His-tagged mouse Tmie (mouse) (UniProt Q8K467); assay: as above
T3 sequence: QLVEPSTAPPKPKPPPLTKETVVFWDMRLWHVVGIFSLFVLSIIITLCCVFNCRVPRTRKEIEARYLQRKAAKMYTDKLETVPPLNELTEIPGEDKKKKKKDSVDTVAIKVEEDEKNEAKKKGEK

[5] = molecular target: T4, V5-tagged mouse Cib2 (mouse) (UniProt Q9Z309); assay: as above
T4 sequence: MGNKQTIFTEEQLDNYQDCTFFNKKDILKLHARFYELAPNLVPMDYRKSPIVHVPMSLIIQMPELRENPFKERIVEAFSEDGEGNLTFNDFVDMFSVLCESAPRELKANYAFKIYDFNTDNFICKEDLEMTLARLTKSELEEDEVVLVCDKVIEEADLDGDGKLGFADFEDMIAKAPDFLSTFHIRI

[6] = molecular target: T1, mCherry-tagged mouse Tmc1 (HEK 293) (mouse); assay: as above
[7] = molecular target: T2, mCherry-tagged mouse Tmc2 (HEK 293) (mouse); assay: as above
[8] = molecular target: Piezo2-GFP fusion protein (Pz2-GFP mouse) (mouse) (UniProt Q8CD54); assay: proximity ligation; hair cells of Pz1-tdT/Pz2-GFP mice (P10), stereocilia and cuticular plate membrane, confocal Z-projections
[9] = molecular target: T5, Tmc2-AcGFP fusion protein (Tmc2-AcGFP transgenic mouse) (mouse) (UniProt Q8R4P4); assay: co-IP; cochlear tissue lysates of Tmc2-AcGFP:Pz1-tdT and Tmc1-mCherry:Pz2-GFP mice, GFP antibody overnight at 4 C, Dynabeads Protein G, immunoblot with anti-tdTomato or anti-mCherry
T5 sequence: T2 sequence

Measured: binding

Pz1 endogenously expressed in HEK 293 cells (from UniProt Q92508 1-2521)
binds: [1] | [2]

FLAG-tagged mouse Pz1 (Flag-mPz1) (from UniProt E2JF22 1-2547)
binds: [3] | [4] | [5] | [6] | [7]

Piezo1-tdTomato fusion protein (Pz1-tdT knock-in mouse) (from UniProt E2JF22 1-2547)
binds: [8] | [9]
